According to article PMC8467575, “Bacterial-Specific Aggregation and Killing of Immunomodulatory Host Defense Peptides” (Pharmaceuticals, 2021):
Values after ≈ are worked out from the molar mass of the structure shown.

Experiments:
[1] = system: Escherichia coli ATCC 25922; experiment: microbe, parasite or virus in culture; format: cell-based; conditions: ATCC25922, early log phase, nutrient broth 37 °C, 4–6 h, colony count on blood agar
Method: (§1) E. coli, S. aureus, and S. enterica were cultured in nutrient broth at 37 °C. Listeria was cultured in brain heart infusion broth at 37 °C. Bacteria at early log phase (OD600 ≈ 0.1) were incubated with the peptides at different concentrations (100–3.12 µM) for 4–6 h. After the incubation period, the bacterial culture medium was diluted at different ratios (1 in 2000–2,000,000) in sterile PBS and was spread on blood agar (BA) plates. BA plates were incubated at 37 °C for 24 h, and the number of colonies formed was counted to determine cell viability.

[2] = system: Staphylococcus aureus ATCC 25923; experiment: microbe, parasite or virus in culture; format: cell-based; conditions: ATCC25923, early log phase, nutrient broth 37 °C, 4–6 h, colony count on blood agar, read-out: MIC S. aureus
Method: as §1

SMILES: CC1(C)S[C@@H]2[C@H](NC(=O)[C@H](N)c3ccccc3)C(=O)N2[C@H]1C(=O)O [Ampicillin, reference compound]
- MIC [1]: 26.9 µM (≈ 9.4 µg/mL)
- MIC [2]: 6.7 µM (≈ 2.34 µg/mL)
